The other results are listed elsewhere or left out. These are further read-outs of the screen, such as a control signal, another cell line or another target. No call is given for them. Compounds called inactive in the main read-out are mostly missing here. Words in brackets tell the shape of the fitted curve; partial curves, single points and poor fits give uncertain potencies.
Assay: qHTS Assay for Lipid Storage Modulators in Drosophila S3 Cells;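 for cell number change: cells counted by Cell Tracker Red CMTPX staining in the red channel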
Conditions: BODIPY lipid droplet fluorescence, 18-24 h; for cell number change: measured here: cell count max response, cells fed with added oleic acid
Method in brief: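 Drosophila S3 cells loaded with oleic acid (400 uM, as added) and compounds at several concentrations; lipid droplets imaged by 488-nm laser-scanning cytometry, 500–530 nm intensity and object ratio to cell channel. Percent activity normalized to 20 uM Triacsin C.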

[1] = measured here: lipid fluorescence (Fed channel) AC50, cells fed with added oleic acid
[2] = measured here: cell number channel AC50, cells fed with added oleic acid

SMILES	cell number change [%]	AC50 [1]	AC50 [2]
CCCc1nc([N+](=O)[O-])c(S(=O)(=O)c2ccccc2)n1CC(C)C	8.34	11.6 µM [falling, partial curve]	–
CC(NC(=O)C12CC3CC(C1)CC(n1cncn1)(C3)C2)C12CC3CC(CC(C3)C1)C2 (stereo not given)	-40.1	0.517 µM [falling, full curve, poor fit]	29.1 µM [falling, single point]
N#Cc1c(NC(=O)c2cnccn2)sc2c1CCCC2	11.5	6.51 µM [rising, partial curve, poor fit]	–
COc1ccc([N+](=O)[O-])cc1-c1nc2ccccc2nc1-c1ccccc1	13.1	–	0.082 µM [rising, full curve, poor fit]
NC(=O)c1ccc(N2CCN(S(=O)(=O)c3ccccc3)CC2)c([N+](=O)[O-])c1	-22.4	–	–
CCn1c(SCC(=O)Nc2nc3ccc(C)cc3s2)nc2c(c1=O)SC(C)C2 (stereo not given)	-3.01	23.1 µM [falling, single point]	–
CCOC(=O)c1c(-c2ccccc2)csc1NC(=O)/C(C#N)=C/c1ccc(O)c(OC)c1	-10.6	29.1 µM [falling, single point]	–
C=CCOc1ccc(Br)cc1CNCCCN1CCOCC1	-20.9	23.1 µM [falling, single point]	–
O=C(COc1ccc(Cl)cc1)Nc1cccc(S(=O)(=O)NCc2ccco2)c1	-15.9	0.82 µM [falling, full curve]	–
O=C(O)COc1ccccc1-c1nc(-c2ccccc2)c(-c2ccccc2)[nH]1	3.41	29.1 µM [rising, single point]	–
COCCNC(=S)N1CCC(NC(=O)c2ccco2)CC1	2.98	3.66 µM [falling, single point]	–
COc1ccc(C(=O)/C(C#N)=N/Nc2ccccc2[N+](=O)[O-])cc1	9.2	29.1 µM [falling, single point]	–
COc1ccc(-c2csc(N3C(=O)C4C5c6ccccc6C(c6ccccc65)[C@@H]4C3=O)n2)cc1 (stereo not given in full)	–	0.731 µM [rising, full curve]	0.731 µM [rising, partial curve, poor fit]
CC(C)(C)n1[nH]c2c3c(ccc2c1=O)C(=O)c1ccccc1C3=O	11	–	2.91 µM [falling, single point]
O=C(c1cc(S(=O)(=O)N2CCOCC2)c(Cl)cc1Cl)N1CCCCC1CO (stereo not given)	-9.29	–	–
COc1ccc(C)cc1N(C(=O)c1ccccc1F)c1nc2ccccc2s1	-3.13	20.6 µM [rising, single point]	–
Nc1nonc1-n1nnc(C(=O)N/N=C/c2ccc(OCc3ccccc3F)cc2)c1CNc1ccccc1	-6.18	–	–
Cc1n[nH]c(C)c1C(=O)CC1(O)C(=O)N(Cc2ccccc2)c2ccc(Br)cc21 (stereo not given)	–	0.206 µM [rising, full curve, poor fit]	0.184 µM [rising, full curve, poor fit]
CCOC(=O)C(CC)Sc1nnc2c3cc(C)ccc3n(C)c2n1 (stereo not given)	33.5	29.1 µM [falling, single point]	4.61 µM [rising, full curve]
COc1ccc(OCC(O)CNCCOc2ccccc2OC)c(C(C)(C)C)c1 (stereo not given)	-61	29.1 µM [falling, single point]	18.4 µM [falling, single point]
CCN(CC)S(=O)(=O)c1ccc(C(=O)Nc2ccc3c(c2)OCCO3)cc1	-14.7	–	–
COC(=O)C1SCC2C(=O)N(Cc3ccc(Cl)c(Cl)c3)CC(=O)N21 (stereo not given)	39.1	0.651 µM [falling, partial curve]	29.1 µM [rising, single point]
O=C(NC1CCCCC1)c1cc(-c2cccc(Cl)c2)on1	10	–	–
C=CCn1c(=O)c2c(C)c(C)sc2n2c(Nc3ccccc3)nnc12	-12.5	–	0.00461 µM [rising, full curve, poor fit]
CCCCOc1ccc(N2C(=O)CC(NCCc3ccc(S(N)(=O)=O)cc3)C2=O)cc1 (stereo not given)	–	1.64 µM [falling, partial curve]	–
CCOC(=O)Cn1c(=O)c2c(nc(N3CCCCC3)n2C)n(C)c1=O	6.6	2.91 µM [rising, full curve, poor fit]	–
Cc1ccc(S(=O)(=O)NNC2CC(=O)N(c3ccc(Br)cc3)C2=O)cc1 (stereo not given)	56.8	29.1 µM [rising, single point]	29.1 µM [rising, partial curve, poor fit]
O=[N+]([O-])c1ccc(/C=N/Nc2ccnc3cc(Cl)ccc23)o1	37.2	–	–
COc1ccc(N2CCN(CCCNC(=O)C(=O)c3c[nH]c4ccccc34)CC2)cc1	-12.5	–	–

Complete entries from above:
CCOC(=O)C(CC)Sc1nnc2c3cc(C)ccc3n(C)c2n1 (stereo not given) as listed: cell number change [%]: 33.5; AC50 [1]: 29.1 µM [falling, single point]; AC50 [2]: 4.61 µM [rising, full curve]
C=CCn1c(=O)c2c(C)c(C)sc2n2c(Nc3ccccc3)nnc12 as listed: cell number change [%]: -12.5; AC50 [2]: 0.00461 µM [rising, full curve, poor fit]

Source: PubChem BioAssay AID2685 (National Center for Advancing Translational Sciences (NCATS), 2010)
